In paper PMC10721154 one finds binding data, which are given here for two substances.

No constants are given. Whether binding was seen depends on the method and setting. Binding seen in cells or lysates may run through a third protein. Binding calls can cover weak binding; strength is not graded here. For some assays here: Where a sequence is shown, tags or fusion partners need not be part of it.

Test [1] addresses T1, HA-PTG (UniProt Q9UQK1).
T1 sequence: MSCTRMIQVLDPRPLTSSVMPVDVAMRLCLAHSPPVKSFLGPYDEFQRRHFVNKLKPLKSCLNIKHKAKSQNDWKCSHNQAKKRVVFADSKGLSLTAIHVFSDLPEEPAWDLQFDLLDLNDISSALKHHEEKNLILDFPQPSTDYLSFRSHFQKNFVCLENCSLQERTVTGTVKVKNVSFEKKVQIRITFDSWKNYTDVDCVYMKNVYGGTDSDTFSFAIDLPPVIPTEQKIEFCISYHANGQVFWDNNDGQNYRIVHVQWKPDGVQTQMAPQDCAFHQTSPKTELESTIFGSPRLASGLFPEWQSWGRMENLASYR
The test is described as follows: co-IP; HEK293T cells transfected with tagged plasmids, treated with H2O2 (200 uM where printed) for 30 minutes or DDP (20 uM) for 12 hours; anti-Flag M2, anti-Myc or anti-HA beads, or anti-STBD1; Western blot.

Test [2] deals with T2, PPP1R3 family member PPP1R3C (PTG) (human (endogenous in MCF-7, MCF-7/DDP)) (UniProt Q9UQK1).
T2 sequence: T1 sequence
The test is described as follows: co-IP; endogenous proteins in lysates of tumor cells (MCF-7, MCF-7/DDP, A549/5-Fu), untreated or treated with DDP or 5-Fu for 24 hours, some with si-Ctrl or si-AHR; indicated antibodies (anti-STBD1, anti-HSP90, anti-AHR, anti-p-PYGL, anti-PTG) overnight at 4 C, Protein A/G beads; Western blot.

In the case of Myc-PP1c (enzyme), in test [1], the binding entry is on record as “binds”.
As for “protein phosphatase 1 catalytic subunit (PP1c) (human (endogenous in MCF-7, MCF-7/DDP)) (enzyme)”, the binding result in test [2] is “binds”.
